Laboratory results: the supplement of paper PMC4604168 (melanoma cell lines)
Some of the results follow. Single values are uncertain, as repeats are few or missing.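 The apoptosis fraction was the count of cleaved-PARP antibody-stained nuclei relative to all DNA-stained nuclei, imaged in 1,536-well plates. Screening doses were set so most cells survived, and baseline and induced cleaved-PARP levels vary greatly across cell lines.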

Key:
Experiment in all cases: cleaved PARP positive nuclei fraction relative to DMSO control; melanoma cells; higher = more apoptosis
Conditions in all cases: library dose: low library concentration; 72 h
[1] = system: MZ2-MEL
[2] = system: MeWo
[3] = system: RPMI7951
[4] = system: RVH-421
[5] = system: SkMel28
[6] = system: SkMel2
[7] = system: SkMel30
[8] = system: SkMel5
[9] = system: UACC257
[10] = system: UACC62
[11] = system: WM115
[12] = system: WM1716
[13] = system: WM1745
[14] = system: WM3526
[15] = system: WM3619
[16] = system: WM451Lu

SMILES	cleaved PARP positive nuclei fraction [1] [%]	cleaved PARP positive nuclei fraction [2] [%]	cleaved PARP positive nuclei fraction [3] [%]	cleaved PARP positive nuclei fraction [4] [%]	cleaved PARP positive nuclei fraction [5] [%]	cleaved PARP positive nuclei fraction [6] [%]	cleaved PARP positive nuclei fraction [7] [%]	cleaved PARP positive nuclei fraction [8] [%]	cleaved PARP positive nuclei fraction [9] [%]	cleaved PARP positive nuclei fraction [10] [%]	cleaved PARP positive nuclei fraction [11] [%]	cleaved PARP positive nuclei fraction [12] [%]	cleaved PARP positive nuclei fraction [13] [%]	cleaved PARP positive nuclei fraction [14] [%]	cleaved PARP positive nuclei fraction [15] [%]	cleaved PARP positive nuclei fraction [16] [%]
C=C(c1ccc(C(=O)O)cc1)c1cc2c(cc1C)C(C)(C)CCC2(C)C [Bexarotene] + CCCCCCCCCCCC1=C(O)C(=O)C=C(O)C1=O [Embelin] (first compound 2 µM, partner dose 1.2 µM)	79.9	83.8	32.4	70.7	272	97.9	141	169	178	74.1	47.7	216	96.1	87.1	86.1	204
CN1CCN(c2ccc3nc(-c4c(N)c5c(F)cccc5[nH]c4=O)[nH]c3c2)CC1 [Dovitinib] + C[C@@H]1CCN(C(=O)CC#N)C[C@@H]1N(C)c1ncnc2[nH]ccc12 [CP690550] (first compound 0.1 µM, partner dose 1 µM)	216	54.9	92	43.5	242	63.3	56.9	94.4	92.5	187	94.9	68.2	107	87.3	95.1	116
Nc1nc(F)nc2c1ncn2[C@@H]1O[C@H](CO)[C@@H](O)[C@@H]1O [fludarabine] + O=C(Nc1cccc(Cl)c1)Nc1ncc(CCNc2ncnc3ccsc23)s1 [SNS314] (first compound 0.2 µM, partner dose 0.0008 µM)	80.1	332	345	394	117	460	392	484	227	174	46.5	131	107	89.3	66.4	85.5
CNC(=O)c1cc(Oc2ccc(NC(=O)Nc3ccc(Cl)c(C(F)(F)F)c3)cc2)ccn1 [sorafenib] + O=C(Nc1cccc(Cl)c1)Nc1ncc(CCNc2ncnc3ccsc23)s1 [SNS314] (first compound 0.4 µM, partner dose 0.0008 µM)	191	37	50	37.9	64.6	74.5	63.4	76.6	87.9	149	295	63.8	100	57.3	97	238
C=C(c1ccc(C(=O)O)cc1)c1cc2c(cc1C)C(C)(C)CCC2(C)C [Bexarotene] + CCN(CC)CCCCNc1ncc2cc(-c3cc(OC)cc(OC)c3)c(NC(=O)NC(C)(C)C)nc2n1 [PD173074] (first compound 2 µM, partner dose 0.1 µM)	139	179	84.2	105	141	79.5	81	161	65.6	96.8	64.8	151	88.6	84.9	99.7	74.1
CS(=O)(=O)CCNCc1ccc(-c2ccc3ncnc(Nc4ccc(OCc5cccc(F)c5)c(Cl)c4)c3c2)o1 [lapatinib] + N#Cc1c(O)c2c(-c3ccc(-c4ccccc4O)cc3)csc2[nH]c1=O [A769662] (first compound 0.8 µM, partner dose 2 µM)	183	130	213	53.1	143	152	125	124	133	103	67.7	29.2	73.3	255	71.6	103
CN1CCN(c2ccc3nc(-c4c(N)c5c(F)cccc5[nH]c4=O)[nH]c3c2)CC1 [Dovitinib] + CCc1ccc(CCOc2ccc(CC3SC(=O)NC3=O)cc2)nc1 [pioglitazone] (first compound 0.1 µM, partner dose 2 µM)	194	251	59.6	99.3	89	20.4	114	88.2	215	112	14.2	181	108	81.4	69.8	145
Nc1ccn([C@@H]2O[C@H](CO)[C@@H](O)C2(F)F)c(=O)n1 [gemcitabine] + C[C@@H]1CCN(C(=O)CC#N)C[C@@H]1N(C)c1ncnc2[nH]ccc12 [CP690550] (first compound 0.0004 µM, partner dose 1 µM)	86.3	134	69.8	93.1	108	68.6	57.9	135	162	72.9	37.5	57.1	120	32.8	125	95.9
O=C(O)[C@@H]1[O][Sb](=[O])([O][Sb]2(=[O])[O][C@H]([C@H](O)CO)[C@H](O)[C@H](C(=O)O)[O]2)[O][C@H]([C@H](O)CO)[C@@H]1O (stereo partly drawn) [stibogluconate] + O=C(CCCCCCC(=O)Nc1ccccc1)NO [vorinostat] (first compound 2 µM, partner dose 0.08 µM)	112	151	84.4	324	390	39.9	59.5	125	166	49.3	62	114	1550	55	108	362
CS(=O)(=O)CCNCc1ccc(-c2ccc3ncnc(Nc4ccc(OCc5cccc(F)c5)c(Cl)c4)c3c2)o1 [lapatinib] + Cc1cc([N+](=O)[O-])ccc1NS(=O)(=O)c1cc(Cl)ccc1Cl [FH535] (first compound 0.8 µM, partner dose 1 µM)	203	129	224	79.3	90	39.2	39.9	82.9	79.8	194	474	36.2	107	53.4	104	62.6
Nc1nc(F)nc2c1ncn2[C@@H]1O[C@H](CO)[C@@H](O)[C@@H]1O [fludarabine] + Cn1cncc1[C@@](N)(c1ccc(Cl)cc1)c1ccc2c(c1)c(-c1cccc(Cl)c1)cc(=O)n2C [tipifarnib] (first compound 0.2 µM, partner dose 0.01 µM)	82.3	559	57.7	131	283	216	811	188	652	208	116	172	100	527	128	242
Cn1c(=O)n(-c2ccc(C(C)(C)C#N)cc2)c2c3cc(-c4cnc5ccccc5c4)ccc3ncc21 + Oc1nc(-c2ccc(C(F)(F)F)cc2)nc2c1CSCC2 [XAV939] (first compound 0.004 µM, partner dose 2 µM)	62.4	94.4	74.4	469	144	84.2	81.6	86.5	46.6	1310	46.8	224	115	92.9	109	135
CCCS(=O)(=O)Nc1ccc(F)c(C(=O)c2c[nH]c3ncc(Cl)cc23)c1F + Oc1cc(-c2nc(-c3ccccc3)[nH]c2-c2ccncc2)ccc1Cl [L779450] (first compound 0.08 µM, partner dose 0.2 µM)	121	37.5	30.2	188	203	86.3	111	76.1	284	186	91.3	71.3	101	132	120	149
CNC(=O)c1cc(Oc2ccc(NC(=O)Nc3ccc(Cl)c(C(F)(F)F)c3)cc2)ccn1 [sorafenib] + COc1cc2ncnc(Nc3ccc(Oc4ccccc4)cc3)c2cc1OC [SrcI1] (first compound 0.4 µM, partner dose 2 µM)	110	263	100	123	109	91.1	33.5	76.5	69.4	97.3	110	291	119	32.5	94	38.4
CS(=O)(=O)CCNCc1ccc(-c2ccc3ncnc(Nc4ccc(OCc5cccc(F)c5)c(Cl)c4)c3c2)o1 [lapatinib] + COc1cc2c(Oc3ccc4[nH]c(C)cc4c3F)ncnc2cc1OCCCN1CCCC1 [cediranib] (first compound 0.8 µM, partner dose 0.4 µM)	117	116	107	27.6	93.4	111	69.2	41.1	57.7	120	124	132	97.3	67.8	82.1	212
C=C(c1ccc(C(=O)O)cc1)c1cc2c(cc1C)C(C)(C)CCC2(C)C [Bexarotene] + CN(NC(=O)CC(=O)NN(C)C(=S)c1ccccc1)C(=S)c1ccccc1 [STA4783] (first compound 2 µM, partner dose 0.006 µM)	105	255	172	107	140	42.7	128	190	162	146	101	194	303	275	471	843
Cn1c(=O)n(-c2ccc(C(C)(C)C#N)cc2)c2c3cc(-c4cnc5ccccc5c4)ccc3ncc21 + O=C(Nc1ccccc1)c1cc([N+](=O)[O-])ccc1Cl [GW9662] (first compound 0.004 µM, partner dose 2 µM)	97.8	22.8	55.1	85.4	170	73.1	25.4	195	313	120	39.7	56.9	86.2	47.3	111	66
C=C(c1ccc(C(=O)O)cc1)c1cc2c(cc1C)C(C)(C)CCC2(C)C [Bexarotene] + O=c1cc(-c2cccc3c2Sc2ccccc2S3)oc(N2CCOCC2)c1 [KU55933] (first compound 2 µM, partner dose 1 µM)	198	21.8	103	149	229	90.9	147	267	20.2	106	144	38.8	85.7	78.3	88.8	99.5

Taken from the listing (2 entries):
SMILES	cleaved PARP positive nuclei fraction [1] [%]	cleaved PARP positive nuclei fraction [2] [%]	cleaved PARP positive nuclei fraction [3] [%]	cleaved PARP positive nuclei fraction [4] [%]	cleaved PARP positive nuclei fraction [5] [%]	cleaved PARP positive nuclei fraction [6] [%]	cleaved PARP positive nuclei fraction [7] [%]	cleaved PARP positive nuclei fraction [8] [%]	cleaved PARP positive nuclei fraction [9] [%]	cleaved PARP positive nuclei fraction [10] [%]	cleaved PARP positive nuclei fraction [11] [%]	cleaved PARP positive nuclei fraction [12] [%]	cleaved PARP positive nuclei fraction [13] [%]	cleaved PARP positive nuclei fraction [14] [%]	cleaved PARP positive nuclei fraction [15] [%]	cleaved PARP positive nuclei fraction [16] [%]
Cn1c(=O)n(-c2ccc(C(C)(C)C#N)cc2)c2c3cc(-c4cnc5ccccc5c4)ccc3ncc21 + Oc1nc(-c2ccc(C(F)(F)F)cc2)nc2c1CSCC2 [XAV939] (first compound 0.004 µM, partner dose 2 µM)	62.4	94.4	74.4	469	144	84.2	81.6	86.5	46.6	1310	46.8	224	115	92.9	109	135
CCCS(=O)(=O)Nc1ccc(F)c(C(=O)c2c[nH]c3ncc(Cl)cc23)c1F + Oc1cc(-c2nc(-c3ccccc3)[nH]c2-c2ccncc2)ccc1Cl [L779450] (first compound 0.08 µM, partner dose 0.2 µM)	121	37.5	30.2	188	203	86.3	111	76.1	284	186	91.3	71.3	101	132	120	149
